The term Ki denotes a measure of affinity in units of concentration, obtained from inhibition or displacement. Low values mean higher affinity, high ones lower affinity.

For the assay, the target named is D2 /ml receptor. Put plainly: Competition binding assay with [3H]-spiperone, D2/ml chimeric receptor. On the set-up: species or system human. Particulars: 0.5 nM [3H]-spiperone, anti-log of mean log Ki, three experiments, Cheng-Prusoff. On the procedure: Cells were detached from culture flasks with EDTA, pelleted at 1,000×g and resuspended in 1× binding buffer (100 mM Tris; 120 mM NaCl; 5 mM KCl; 1 mM MgCl2; 2 mM CaCl2; 1.1 mM ascorbic acid; pH 7.4) at ~1×10^6 cells/ml. Cells were homogenized with a Polytron (Brinkman) and the crude membrane fraction was pelleted at 17,000× g for 10 min. Membranes were resuspended in 1× binding buffer and ~10 μg of membrane protein from CHO-D2(414) cells or ~20 μg of protein from CHO-D2 /ml cells was used per 1 ml binding reaction. Triplicate binding reactions were done in IX binding buffer for 30 min. at 37°, then stopped by filtration through glass-fiber filters (Skatron) that were pre-soaked in 0.1% polyethyleneimine, followed by a 5 sec. wash with ice cold 0.1× binding buffer. […]. […] Competing ligands were all from Research Biochemicals Inc.
IC50 's were determined by analysis with the program ALLFIT (A. De Lean et al., Am. J. Physiol. 235:E97 (1978), which is incorporated herein by reference) and Ki computed using the Cheng-Prusoff equation (Y. Cheng and W. Prusoff, Biochem. Pharmacol. 22:3099 (1973), which is incorporated herein by reference). […] Values are the anti-log of the mean log Ki from three separate experiments and 95% confidence intervals calculated from the standard deviation of the log Ki.

In turn, `OCCN1CCN(CCCN2c3ccccc3Sc3ccc(C(F)(F)F)cc32)CC1` [Fluphenazine] came in with a Ki of 7.2 nM.

The values are drawn from patent US5264565A, “Nucleic acid encoding the D2 /Ml chimeric receptor” (Affymax Technologies, N.V., priority 1991, dated 1993).
